From the supplement of paper PMC10849652
Some of the results follow.

Sequences of proteins named here, by UniProt entry; tags and fusion partners are left off. A change or cut given only in a name is not applied to a line headed by its entry.
UniProt Q96BK5: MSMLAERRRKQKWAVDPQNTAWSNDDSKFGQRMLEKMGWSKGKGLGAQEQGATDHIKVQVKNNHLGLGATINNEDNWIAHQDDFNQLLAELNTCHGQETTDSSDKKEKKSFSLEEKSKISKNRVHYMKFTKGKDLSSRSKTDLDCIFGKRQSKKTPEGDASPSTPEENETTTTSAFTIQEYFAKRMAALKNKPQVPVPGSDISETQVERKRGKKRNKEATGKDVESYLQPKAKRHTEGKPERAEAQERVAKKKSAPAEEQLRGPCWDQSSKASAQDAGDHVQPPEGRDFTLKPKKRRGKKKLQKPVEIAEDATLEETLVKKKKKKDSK
UniProt Q99471, whole entry, looked up: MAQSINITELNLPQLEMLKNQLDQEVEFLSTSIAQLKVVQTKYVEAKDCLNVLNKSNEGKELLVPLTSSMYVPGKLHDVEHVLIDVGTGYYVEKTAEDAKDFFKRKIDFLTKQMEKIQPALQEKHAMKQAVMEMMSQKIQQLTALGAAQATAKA
UniProt Q13393: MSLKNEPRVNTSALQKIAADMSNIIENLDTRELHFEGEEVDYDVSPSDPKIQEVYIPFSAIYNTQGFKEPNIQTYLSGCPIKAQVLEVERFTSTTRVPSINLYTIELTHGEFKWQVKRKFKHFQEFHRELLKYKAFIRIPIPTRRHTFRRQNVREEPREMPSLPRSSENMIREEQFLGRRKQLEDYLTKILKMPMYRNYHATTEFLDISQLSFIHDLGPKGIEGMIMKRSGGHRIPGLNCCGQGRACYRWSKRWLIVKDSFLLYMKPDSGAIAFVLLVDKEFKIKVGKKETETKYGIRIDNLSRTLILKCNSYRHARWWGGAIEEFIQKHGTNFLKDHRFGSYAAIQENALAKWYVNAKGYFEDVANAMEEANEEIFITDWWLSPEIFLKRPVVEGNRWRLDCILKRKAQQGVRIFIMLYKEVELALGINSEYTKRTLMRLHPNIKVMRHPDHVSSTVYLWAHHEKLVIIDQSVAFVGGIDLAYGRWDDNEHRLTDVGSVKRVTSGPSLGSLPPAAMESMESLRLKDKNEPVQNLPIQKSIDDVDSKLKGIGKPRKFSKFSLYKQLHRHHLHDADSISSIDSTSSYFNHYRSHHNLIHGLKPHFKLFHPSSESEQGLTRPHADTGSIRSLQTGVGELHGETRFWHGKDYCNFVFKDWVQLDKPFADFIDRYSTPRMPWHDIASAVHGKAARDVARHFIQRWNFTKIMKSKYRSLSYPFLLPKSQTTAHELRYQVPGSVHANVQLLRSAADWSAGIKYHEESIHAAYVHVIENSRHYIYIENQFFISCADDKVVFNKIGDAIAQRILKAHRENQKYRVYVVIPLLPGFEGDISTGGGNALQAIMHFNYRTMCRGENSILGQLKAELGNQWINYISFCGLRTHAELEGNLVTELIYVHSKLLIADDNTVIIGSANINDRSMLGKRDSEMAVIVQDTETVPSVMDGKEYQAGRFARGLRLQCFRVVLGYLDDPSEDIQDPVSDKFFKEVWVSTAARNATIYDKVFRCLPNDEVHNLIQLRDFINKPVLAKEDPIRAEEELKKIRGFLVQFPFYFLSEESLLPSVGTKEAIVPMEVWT
UniProt P52209: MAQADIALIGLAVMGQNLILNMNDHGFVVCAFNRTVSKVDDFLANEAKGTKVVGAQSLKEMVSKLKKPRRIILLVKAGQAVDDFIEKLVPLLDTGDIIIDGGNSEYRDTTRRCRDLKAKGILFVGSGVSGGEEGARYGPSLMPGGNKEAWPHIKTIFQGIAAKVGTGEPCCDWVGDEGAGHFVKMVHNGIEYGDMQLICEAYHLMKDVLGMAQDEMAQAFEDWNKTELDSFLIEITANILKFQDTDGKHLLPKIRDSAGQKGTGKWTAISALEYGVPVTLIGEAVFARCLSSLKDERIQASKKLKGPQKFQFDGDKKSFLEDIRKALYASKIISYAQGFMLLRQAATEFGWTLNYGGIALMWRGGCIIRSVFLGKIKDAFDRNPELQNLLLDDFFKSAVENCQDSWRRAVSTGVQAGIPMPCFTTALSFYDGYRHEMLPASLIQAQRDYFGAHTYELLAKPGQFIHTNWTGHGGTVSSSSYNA
UniProt P07737, whole entry, looked up: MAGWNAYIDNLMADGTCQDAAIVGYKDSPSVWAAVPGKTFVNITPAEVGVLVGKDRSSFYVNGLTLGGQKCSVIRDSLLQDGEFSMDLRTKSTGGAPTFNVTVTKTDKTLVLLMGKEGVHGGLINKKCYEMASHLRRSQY
UniProt Q9NRX4: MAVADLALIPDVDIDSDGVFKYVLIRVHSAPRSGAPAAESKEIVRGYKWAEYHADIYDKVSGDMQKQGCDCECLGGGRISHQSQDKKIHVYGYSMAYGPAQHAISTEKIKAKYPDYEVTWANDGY
UniProt Q01813: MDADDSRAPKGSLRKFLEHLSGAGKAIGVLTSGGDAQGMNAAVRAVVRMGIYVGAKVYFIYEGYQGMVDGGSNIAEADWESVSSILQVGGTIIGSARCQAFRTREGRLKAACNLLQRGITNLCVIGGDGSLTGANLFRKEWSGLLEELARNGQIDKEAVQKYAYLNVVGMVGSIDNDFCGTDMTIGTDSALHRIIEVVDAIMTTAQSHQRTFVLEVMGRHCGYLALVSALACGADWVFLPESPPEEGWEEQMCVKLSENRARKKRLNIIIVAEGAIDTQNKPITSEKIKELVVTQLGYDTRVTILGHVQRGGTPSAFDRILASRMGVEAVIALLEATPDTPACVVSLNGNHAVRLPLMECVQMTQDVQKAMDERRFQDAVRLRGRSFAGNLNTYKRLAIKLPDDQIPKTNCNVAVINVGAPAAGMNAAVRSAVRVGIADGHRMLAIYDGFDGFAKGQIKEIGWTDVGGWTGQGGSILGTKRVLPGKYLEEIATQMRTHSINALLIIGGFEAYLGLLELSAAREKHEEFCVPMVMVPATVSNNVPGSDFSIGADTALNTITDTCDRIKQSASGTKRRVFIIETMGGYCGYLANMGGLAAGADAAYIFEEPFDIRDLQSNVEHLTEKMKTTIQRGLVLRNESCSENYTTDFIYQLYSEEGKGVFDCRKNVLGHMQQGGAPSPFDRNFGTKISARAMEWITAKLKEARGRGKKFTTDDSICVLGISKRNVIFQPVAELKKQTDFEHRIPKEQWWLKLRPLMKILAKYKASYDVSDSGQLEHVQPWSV
UniProt P28328: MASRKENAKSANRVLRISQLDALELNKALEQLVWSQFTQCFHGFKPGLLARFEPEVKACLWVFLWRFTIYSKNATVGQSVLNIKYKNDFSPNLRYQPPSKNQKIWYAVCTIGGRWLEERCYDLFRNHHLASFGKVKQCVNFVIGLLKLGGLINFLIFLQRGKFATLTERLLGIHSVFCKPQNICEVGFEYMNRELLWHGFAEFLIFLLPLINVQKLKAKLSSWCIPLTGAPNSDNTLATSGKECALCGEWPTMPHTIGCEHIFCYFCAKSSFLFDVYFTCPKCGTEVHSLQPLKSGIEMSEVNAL
UniProt P30613: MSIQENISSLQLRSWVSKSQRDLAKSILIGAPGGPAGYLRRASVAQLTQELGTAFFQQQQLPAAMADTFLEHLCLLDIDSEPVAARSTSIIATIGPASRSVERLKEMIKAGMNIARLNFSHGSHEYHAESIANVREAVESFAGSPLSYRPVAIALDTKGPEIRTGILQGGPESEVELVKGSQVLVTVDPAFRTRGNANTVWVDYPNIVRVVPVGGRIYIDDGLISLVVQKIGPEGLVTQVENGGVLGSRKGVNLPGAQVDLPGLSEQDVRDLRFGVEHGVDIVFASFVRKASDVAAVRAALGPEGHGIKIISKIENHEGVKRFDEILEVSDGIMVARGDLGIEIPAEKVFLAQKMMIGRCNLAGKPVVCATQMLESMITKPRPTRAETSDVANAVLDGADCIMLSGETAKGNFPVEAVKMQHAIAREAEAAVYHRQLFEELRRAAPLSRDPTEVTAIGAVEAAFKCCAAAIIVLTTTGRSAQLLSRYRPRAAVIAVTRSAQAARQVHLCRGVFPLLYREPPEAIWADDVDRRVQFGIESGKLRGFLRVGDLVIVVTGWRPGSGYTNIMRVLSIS
UniProt P00558: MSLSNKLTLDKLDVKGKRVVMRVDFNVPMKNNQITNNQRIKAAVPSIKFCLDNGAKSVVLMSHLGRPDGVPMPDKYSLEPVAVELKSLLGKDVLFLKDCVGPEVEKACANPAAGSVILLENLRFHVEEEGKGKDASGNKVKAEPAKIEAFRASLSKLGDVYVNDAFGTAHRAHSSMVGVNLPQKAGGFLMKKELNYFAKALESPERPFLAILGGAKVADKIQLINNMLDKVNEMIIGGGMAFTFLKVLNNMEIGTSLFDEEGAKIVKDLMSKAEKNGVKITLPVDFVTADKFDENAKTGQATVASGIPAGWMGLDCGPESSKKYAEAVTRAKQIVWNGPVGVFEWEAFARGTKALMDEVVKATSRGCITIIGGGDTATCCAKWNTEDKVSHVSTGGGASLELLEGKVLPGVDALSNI
UniProt P42356, whole entry, looked up: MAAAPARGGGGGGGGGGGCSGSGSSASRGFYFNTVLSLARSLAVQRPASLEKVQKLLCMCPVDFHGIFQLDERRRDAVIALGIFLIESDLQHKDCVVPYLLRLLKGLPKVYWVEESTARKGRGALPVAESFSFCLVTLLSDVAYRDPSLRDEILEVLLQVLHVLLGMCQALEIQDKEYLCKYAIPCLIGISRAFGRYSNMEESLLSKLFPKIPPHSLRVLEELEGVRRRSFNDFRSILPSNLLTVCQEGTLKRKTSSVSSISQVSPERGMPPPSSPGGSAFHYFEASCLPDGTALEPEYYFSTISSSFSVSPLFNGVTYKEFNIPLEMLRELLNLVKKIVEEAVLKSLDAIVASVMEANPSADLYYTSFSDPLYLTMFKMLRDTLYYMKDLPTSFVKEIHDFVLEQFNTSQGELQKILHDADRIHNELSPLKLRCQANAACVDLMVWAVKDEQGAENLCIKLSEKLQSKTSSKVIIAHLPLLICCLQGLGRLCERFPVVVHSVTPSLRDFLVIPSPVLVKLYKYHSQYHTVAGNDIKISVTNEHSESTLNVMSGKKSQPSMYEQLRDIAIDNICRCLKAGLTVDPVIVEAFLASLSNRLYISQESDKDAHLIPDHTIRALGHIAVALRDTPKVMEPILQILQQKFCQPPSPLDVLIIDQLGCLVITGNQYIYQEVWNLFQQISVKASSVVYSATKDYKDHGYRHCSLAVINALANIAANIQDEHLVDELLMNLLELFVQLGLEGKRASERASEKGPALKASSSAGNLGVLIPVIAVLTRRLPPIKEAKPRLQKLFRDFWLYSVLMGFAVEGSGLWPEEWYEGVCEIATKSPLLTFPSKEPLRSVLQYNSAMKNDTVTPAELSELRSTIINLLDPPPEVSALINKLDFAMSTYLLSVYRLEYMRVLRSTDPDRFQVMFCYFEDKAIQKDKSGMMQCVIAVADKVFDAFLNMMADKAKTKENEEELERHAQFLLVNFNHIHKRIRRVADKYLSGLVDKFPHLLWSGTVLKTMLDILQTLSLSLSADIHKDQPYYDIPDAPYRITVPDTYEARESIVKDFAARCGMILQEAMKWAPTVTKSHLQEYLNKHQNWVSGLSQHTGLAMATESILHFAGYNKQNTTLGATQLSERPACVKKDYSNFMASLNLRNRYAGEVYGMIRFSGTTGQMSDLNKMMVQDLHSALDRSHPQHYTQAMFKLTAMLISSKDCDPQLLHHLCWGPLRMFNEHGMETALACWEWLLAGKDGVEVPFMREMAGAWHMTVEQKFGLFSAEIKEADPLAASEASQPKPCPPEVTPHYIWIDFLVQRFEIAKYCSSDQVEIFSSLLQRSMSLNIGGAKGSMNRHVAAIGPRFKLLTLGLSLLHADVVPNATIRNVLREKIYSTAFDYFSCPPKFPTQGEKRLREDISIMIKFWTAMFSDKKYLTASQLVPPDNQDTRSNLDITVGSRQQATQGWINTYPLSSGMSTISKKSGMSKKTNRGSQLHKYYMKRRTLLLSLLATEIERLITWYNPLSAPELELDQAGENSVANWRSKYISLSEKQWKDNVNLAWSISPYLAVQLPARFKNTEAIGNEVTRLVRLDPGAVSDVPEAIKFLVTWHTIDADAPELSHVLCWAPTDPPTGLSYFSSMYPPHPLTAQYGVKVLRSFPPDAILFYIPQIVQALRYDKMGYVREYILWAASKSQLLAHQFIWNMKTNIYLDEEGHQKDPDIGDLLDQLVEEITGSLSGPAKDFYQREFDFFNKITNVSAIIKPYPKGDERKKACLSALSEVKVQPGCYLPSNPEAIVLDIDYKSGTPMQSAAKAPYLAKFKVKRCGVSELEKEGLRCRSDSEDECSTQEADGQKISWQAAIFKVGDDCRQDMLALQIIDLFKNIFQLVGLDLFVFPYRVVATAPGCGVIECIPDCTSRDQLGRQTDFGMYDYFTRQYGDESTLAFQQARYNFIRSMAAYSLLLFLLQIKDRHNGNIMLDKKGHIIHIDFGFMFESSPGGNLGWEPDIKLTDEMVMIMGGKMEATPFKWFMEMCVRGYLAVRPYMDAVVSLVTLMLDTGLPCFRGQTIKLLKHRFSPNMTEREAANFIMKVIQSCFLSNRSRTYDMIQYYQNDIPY

How the values were obtained:
Experiment in all cases: log2 fold change, soluble protein after heating vs DMSO (PISA); higher = thermal stabilisation; K562 cells, 10 uM, 30 min; active = over 0.2 and 3.5 SD of the protein, either way, in both replicates (recomputed)
[1] = compound: CS(=O)(=O)c1ccc(-c2cnc(N)c(C(=O)Nc3ccccc3)n2)cc1
Outline: (§1)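 Soluble protein was quantified by TMTpro 16plex LC-MS/MS after channel sums were equalised. It was obtained as the supernatant after 21,000xg for 90 min from pooled aliquots of K562 cells (2×10^6 cells/mL, 10 μM compound, 30 min) heated for 3 min across 48°C-58°C and extracted in PBS with 0.5% NP-40 at 4°C. Thermal stability values are relative to control samples and come from duplicates. They are given as log2 fold changes.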

crizotinib = compound: C[C@@H](Oc1cc(-c2cnn(C3CCNCC3)c2)cnc1N)c1c(Cl)ccc(F)c1Cl [crizotinib]
Outline: as §1

[2] = compound: C[C@@H]1COCCN1C2=NC(=NC(=C2)C3(CC3)S(=O)(=O)C)C4=C5C=CNC5=CC=C4
Outline: as §1

[3] = compound: C[C@H](C1=CC=C(C=C1)C(=O)NC2=C3C=CNC3=NC=C2)N
Outline: as §1

duvelisib = compound: C[C@H](Nc1ncnc2nc[nH]c12)c1cc2cccc(Cl)c2c(=O)n1-c1ccccc1 [duvelisib]
Outline: as §1

gandotinib = compound: Cc1cc(Nc2cc(CN3CCOCC3)c3nc(C)c(Cc4ccc(Cl)cc4F)n3n2)n[nH]1 [gandotinib]
Outline: as §1

tozasertib = compound: Cc1cc(Nc2cc(N3CCN(C)CC3)nc(Sc3ccc(NC(=O)C4CC4)cc3)n2)n[nH]1 [tozasertib]
Outline: as §1

[4] = compound: Cc1cc(SCc2sc(-c3ccc(C(F)(F)F)cc3)nc2C)ccc1OCC(=O)O
Outline: as §1

doramapimod = compound: Cc1ccc(-n2nc(C(C)(C)C)cc2NC(=O)Nc2ccc(OCCN3CCOCC3)c3ccccc23)cc1 [doramapimod]
Outline: as §1

ispinesib = compound: Cc1ccc(C(=O)N(CCCN)[C@@H](c2nc3cc(Cl)ccc3c(=O)n2Cc2ccccc2)C(C)C)cc1 [ispinesib]
Outline: as §1

bafetinib = compound: Cc1ccc(NC(=O)c2ccc(CN3CC[C@H](N(C)C)C3)c(C(F)(F)F)c2)cc1Nc1nccc(-c2cncnc2)n1 [bafetinib]
Outline: as §1

[5] = compound: Cc1cccc(CC(=O)N2CCc3c2ccc(-c2cn(C)c4ncnc(N)c24)c3F)n1
Outline: as §1

nilotinib = compound: Cc1cn(-c2cc(NC(=O)c3ccc(C)c(Nc4nccc(-c5cccnc5)n4)c3)cc(C(F)(F)F)c2)cn1 [nilotinib]
Outline: as §1

[6] = compound: Cc1nc(Nc2n[nH]c3c2CN(C(=O)N[C@H](CN(C)C)c2ccccc2)C3(C)C)c2sccc2n1
Outline: as §1

dasatinib = compound: Cc1nc(Nc2ncc(C(=O)Nc3c(C)cccc3Cl)s2)cc(N2CCN(CCO)CC2)n1 [dasatinib]
Outline: as §1

[7] = compound: Cc1ncc(-c2ccnc(Nc3ccc(S(C)(=O)=O)cc3)n2)n1C(C)C
Outline: as §1

[8] = compound: Cn1cc(-c2ccc3c(c2)CCN3C(=O)Cc2cccc(C(F)(F)F)c2)c2c(N)ncnc21
Outline: as §1

[9] = compound: Cn1cc(-c2ccc3nnc(C(F)(F)c4ccc5ncccc5c4)n3n2)cn1
Outline: as §1

tipifarnib = compound: Cn1cncc1[C@@](N)(c1ccc(Cl)cc1)c1ccc2c(c1)c(-c1cccc(Cl)c1)cc(=O)n2C [tipifarnib]
Outline: as §1

mubritinib = compound: FC(F)(F)c1ccc(/C=C/c2nc(COc3ccc(CCCCn4ccnn4)cc3)co2)cc1 [mubritinib]
Outline: as §1

Measured: log2 fold change

PINX1 (UniProt Q96BK5)
inactive: [1] -0.091 | crizotinib 0.065 | [2] -0.702 | [3] 0.547 | duvelisib -0.182 | gandotinib 0.387 | tozasertib 0.047 | [4] -0.063 | doramapimod 0.176 | ispinesib -0.075 | bafetinib 0.086 | [5] 0.017 | nilotinib -0.132 | [6] 0.04 | dasatinib 0.221 | [7] -0.242 | [8] -0.318 | [9] -0.069 | tipifarnib 0.413 | mubritinib -0.129

PIGQ (UniProt Q9BRB3)
inactive: [1] 0.142 | crizotinib 0.039 | [2] 0.061 | [3] -0.179 | duvelisib 0.094 | gandotinib -0.029 | tozasertib 0.081 | [4] 0.072 | doramapimod -0.027 | ispinesib 0.117 | bafetinib -0.086 | [5] 0.021 | nilotinib 0.068 | [6] -0.031 | dasatinib -0.164 | [7] -0.014 | [8] 0.13 | [9] 0.073 | mubritinib -0.054

PFDN5 (UniProt Q99471)
inactive: [1] -0.048 | crizotinib 0.13 | [2] 0.078 | [3] -0.148 | duvelisib 0.038 | gandotinib 0.054 | tozasertib 0.08 | [4] -0.021 | doramapimod 0.019 | ispinesib 0.194 | bafetinib 0.014 | [5] 0.137 | nilotinib 0.022 | [6] -0.003 | dasatinib -0.026 | [7] -0.011 | [8] 0.062 | [9] 0.065 | tipifarnib 0.014 | mubritinib 0

PITHD1 (UniProt Q9GZP4)
inactive: [1] 0.01 | crizotinib 0.081 | [2] 0.006 | [3] 0.021 | duvelisib 0.021 | gandotinib 0.06 | tozasertib -0.038 | [4] -0.058 | doramapimod -0.068 | ispinesib -0.021 | bafetinib -0.199 | [5] -0.094 | nilotinib 0.084 | [6] 0.003 | dasatinib 0.005 | [7] -0.01 | [8] 0.036 | [9] -0.021 | tipifarnib 0.081 | mubritinib -0.004

PLD1 (UniProt Q13393)
inactive: [1] 0.08 | crizotinib -0.232 | [2] -0.218 | [3] 0.175 | duvelisib -0.141 | gandotinib 0.152 | tozasertib -0.004 | [4] 0.105 | doramapimod 0.113 | ispinesib -0.383 | bafetinib -0.136 | [5] 0.144 | nilotinib -0.063 | [6] -0.135 | dasatinib 0.054 | [7] -0.023 | [8] -0.153 | [9] -0.049 | tipifarnib 0.106 | mubritinib 0.052

PGM2L1 (UniProt Q6PCE3)
inactive: [1] 0.025 | crizotinib 0.013 | [2] 0.033 | [3] -0.013 | duvelisib -0.012 | gandotinib -0.038 | tozasertib -0.042 | [4] -0.056 | doramapimod -0.022 | ispinesib 0.031 | bafetinib -0.059 | [5] 0 | nilotinib 0.056 | [6] -0.044 | dasatinib 0.034 | [7] -0.007 | [8] 0.005 | [9] 0.01 | tipifarnib 0.012 | mubritinib 0.119

Reprinted at random: 2 records from the list, in no set order.
PFDN5 (UniProt Q99471)
inactive: [1] -0.048 | crizotinib 0.13 | [2] 0.078 | [3] -0.148 | duvelisib 0.038 | gandotinib 0.054 | tozasertib 0.08 | [4] -0.021 | doramapimod 0.019 | ispinesib 0.194 | bafetinib 0.014 | [5] 0.137 | nilotinib 0.022 | [6] -0.003 | dasatinib -0.026 | [7] -0.011 | [8] 0.062 | [9] 0.065 | tipifarnib 0.014 | mubritinib 0

PINX1 (UniProt Q96BK5)
inactive: [1] -0.091 | crizotinib 0.065 | [2] -0.702 | [3] 0.547 | duvelisib -0.182 | gandotinib 0.387 | tozasertib 0.047 | [4] -0.063 | doramapimod 0.176 | ispinesib -0.075 | bafetinib 0.086 | [5] 0.017 | nilotinib -0.132 | [6] 0.04 | dasatinib 0.221 | [7] -0.242 | [8] -0.318 | [9] -0.069 | tipifarnib 0.413 | mubritinib -0.129

(list continues)

PGD (UniProt P52209)
inactive: [1] 0.02 | crizotinib -0.041 | [2] 0.047 | [3] -0.041 | duvelisib 0.01 | gandotinib -0.017 | tozasertib -0.032 | [4] -0.015 | doramapimod 0.006 | ispinesib 0 | bafetinib -0.031 | [5] 0.016 | nilotinib -0.005 | [6] -0.031 | dasatinib -0.044 | [7] -0.021 | [8] 0.051 | [9] 0.005 | tipifarnib -0.047 | mubritinib 0.037

PEX19 (UniProt P40855)
inactive: [1] -0.017 | crizotinib 0.068 | [2] -0.01 | [3] -0.008 | duvelisib 0 | gandotinib 0.085 | tozasertib 0.01 | [4] -0.043 | doramapimod -0.04 | ispinesib -0.015 | bafetinib -0.048 | [5] -0.038 | nilotinib 0.042 | [6] -0.004 | dasatinib 0.041 | [7] 0.005 | [8] -0.003 | [9] -0.022 | tipifarnib 0.005 | mubritinib 0.019

PFN1 (UniProt P07737)
inactive: [1] -0.007 | crizotinib 0.05 | [2] 0.037 | [3] -0.099 | duvelisib 0 | gandotinib -0.046 | tozasertib 0.016 | [4] -0.04 | doramapimod -0.034 | ispinesib 0.055 | bafetinib -0.059 | [5] 0.018 | nilotinib -0.041 | [6] -0.013 | dasatinib 0.015 | [7] -0.004 | [8] 0.034 | [9] 0.019 | tipifarnib -0.023 | mubritinib 0.016

PHPT1 (UniProt Q9NRX4)
inactive: [1] 0.043 | crizotinib 0.019 | [2] -0.07 | [3] -0.041 | duvelisib 0.029 | gandotinib 0.011 | tozasertib 0.026 | [4] 0.015 | doramapimod -0.015 | ispinesib 0.044 | bafetinib -0.04 | [5] -0.053 | nilotinib 0.065 | [6] -0.02 | dasatinib 0.009 | [7] -0.016 | [8] 0.024 | [9] 0.038 | tipifarnib -0.013 | mubritinib -0.025

PFKP (UniProt Q01813)
inactive: [1] -0.008 | crizotinib 0.046 | [2] 0.01 | [3] -0.024 | duvelisib 0.062 | gandotinib -0.063 | tozasertib -0.02 | [4] 0.01 | doramapimod 0 | ispinesib 0.019 | bafetinib -0.021 | [5] -0.01 | nilotinib -0.02 | [6] 0.016 | dasatinib -0.04 | [7] -0.012 | [8] 0.068 | [9] 0.01 | tipifarnib 0.012 | mubritinib 0.008

PEX2 (UniProt P28328)
inactive: [1] 0.209 | crizotinib 0.062 | [2] 0.054 | [3] 0.041 | duvelisib -0.063 | gandotinib -0.18 | tozasertib -0.001 | [4] -0.006 | doramapimod 0.007 | ispinesib -0.144 | bafetinib -0.183 | [5] 0.034 | nilotinib -0.083 | [6] 0.028 | dasatinib 0.041 | [7] 0.042 | [8] 0.041 | [9] 0.008 | tipifarnib -0.06 | mubritinib -0.02

PKLR (UniProt P30613)
inactive: [1] 0 | crizotinib 0.019 | [2] 0.023 | [3] -0.082 | duvelisib 0.012 | gandotinib -0.038 | tozasertib 0 | [4] -0.041 | doramapimod -0.024 | ispinesib 0.011 | bafetinib -0.042 | [5] -0.013 | nilotinib -0.015 | [6] -0.002 | dasatinib 0.003 | [7] 0.006 | [8] 0.014 | [9] -0.01 | tipifarnib -0.008 | mubritinib 0.043

PGK1 (UniProt P00558)
inactive: [1] 0.08 | crizotinib 0.01 | [2] 0.087 | [3] -0.028 | duvelisib 0.05 | gandotinib -0.012 | tozasertib -0.013 | [4] 0.009 | doramapimod -0.017 | ispinesib 0.063 | bafetinib 0.01 | [5] -0.01 | nilotinib 0.061 | [6] 0.018 | dasatinib -0.018 | [7] -0.002 | [8] 0.066 | [9] 0.011 | tipifarnib -0.038 | mubritinib 0.037

PFKFB2 (UniProt O60825)
inactive: [1] 0.065 | crizotinib 0.011 | [2] 0.036 | [3] -0.048 | duvelisib -0.037 | gandotinib -0.014 | tozasertib -0.038 | [4] 0.011 | doramapimod -0.023 | ispinesib 0.012 | bafetinib 0.004 | [5] 0.02 | nilotinib -0.052 | [6] 0.016 | dasatinib -0.095 | [7] -0.018 | [8] 0.017 | [9] -0.004 | tipifarnib 0.005 | mubritinib 0.041

PI4KA (UniProt P42356)
inactive: [1] 0.14 | crizotinib -0.009 | [2] -0.114 | [3] 0.148 | duvelisib 0.056 | gandotinib 0.061 | tozasertib 0.03 | [4] 0.041 | doramapimod 0.037 | ispinesib -0.068 | bafetinib 0.105 | [5] -0.007 | nilotinib 0.002 | [6] -0.127 | dasatinib -0.08 | [7] 0.021 | [8] -0.118 | [9] -0.022 | tipifarnib -0.039 | mubritinib -0.086
